The supplement of paper PMC4683952
This is one part of the list. How the calls were made is not given here. This data set is noisy: repeats of one test often differ as much as different tests do.

System: Lgr5 (MarsCy1-Lgr5-EGFP, U2OS)
Experiment: cell-surface Lgr5 expression (SCi1 fluorescence, background-subtracted) relative to WT DMSO (fold of DMSO control); higher = more Lgr5 at the plasma membrane
Details: U2OS MarsCy1-Lgr5-EGFP stable; treatment time: overnight; library: Kinase Gold; 20 µM
Protocol: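 U2OS cells stably expressing MarsCy1-Lgr5-EGFP in 384-well plates were incubated overnight with single-dose compounds. Cell-surface Lgr5 was stained with SCi1 and scanned at 700 nm on a LI-COR Odyssey. Intensity was background-subtracted (parental U2OS) and expressed relative to WT DMSO wells.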

SMILES	cell-surface Lgr5 expression
NNc1nc(Nc2cccc(Cl)c2)nc(N2CCOCC2)n1	inactive: 0.441
NNC(=O)c1c(NC(=O)c2ccccc2)sc2c1CCCCC2	inactive: 0.321
c1ccc2[nH]c(NCc3ccc4c(c3)OCO4)nc2c1	inactive: 0.712
O=C(O)CNC(=O)c1ccccc1NC(=O)c1ccco1	inactive: 0.993
